# The whole screen tested about 400,000 compounds, of which about 5,500 (1.4%) were called active. The shares of active, inactive and inconclusive entries below differ from those in the screen. Calls follow the shape of the dose curve; as a rule, active = well fitted cell-killing curve with a large enough effect; inconclusive = small, poorly fitted or top-dose-only effect, or effect the other way; inactive = flat fitted curve, though single readings scatter. Potencies beside an inconclusive call are fits to weak or partial responses and may not hold up.
# Assay: qHTS assay for MDR1-selective chemotherapeutics: Primary screen using the parental adenocarcinoma cell KB-3-1; also: nearly all actives have a fitted effect of over 60% in size
# Conditions: KB-3-1 viability, CellTiter-Glo ATP luminescence, 72 h; activity change, negative = cytotoxic: at 46.1 µM (top of the series)
# In short: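 Viability of parental KB-3-1 cells, measured by CellTiter-Glo luminescence, followed a 72 h incubation at 37 °C with pinned compounds in phenol-red-free DMEM containing 10% FBS.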
# % is scaled to controls: 0 for no effect and ±100 for the full control effect; potency is read from the fitted curve at half-maximal effect.
Compound,Potency,"activity change, negative = cytotoxic"
O=C(Nc1ccccc1)C1=C[C@H](c2ccccc2)C[C@H](OCCCCO)O1,"inconclusive: 14.6 µM [cytotoxic, partial curve, poor fit]",–
COc1ccc(CCNC(=O)CN2C(=O)NC3(CCCCC3)C2=O)cc1,"inconclusive: 29.1 µM [rising, single point]",–
CN(CCC#N)C(=O)COC(=O)c1ccccc1C(=O)c1ccc(Cl)c([N+](=O)[O-])c1,"inconclusive: 20.6 µM [cytotoxic, single point]",–
Cc1nn(-c2ccc(Cl)c(Cl)c2Cl)c(=O)c2ccccc12,"inconclusive: 23.1 µM [cytotoxic, single point]",–
Cc1ccc2[nH]cc(C(c3ccccc3)c3ccc(C)s3)c2c1 (stereo not given),"inconclusive: 29.1 µM [cytotoxic, single point]",–
NC(=O)CCCn1c(C(=O)c2cc(Cl)c(N)c(Cl)c2)c2ccc(C(F)(F)F)cc2[n+]1[O-],–,inactive: -9.14%
COc1ccc(CN2C(=O)c3ccccc3C(/C=N\OCc3ccc(F)cc3)C2=O)cc1 (stereo not given),"inconclusive: 29.1 µM [cytotoxic, single point]",–
CC(C)C(=O)Nc1ccc(C(=O)N/N=C/c2cc(Br)cc(Br)c2O)cc1,"inconclusive: 16.4 µM [cytotoxic, single point]",–
COc1ccc(CNC(=O)C2CCCN(S(=O)(=O)c3ccc(Br)s3)C2)cc1 (stereo not given),–,inactive: -27.7%
NS(=O)(=O)c1ccc(NC(=S)NCc2cccc(Cl)c2)cc1,"inconclusive: 29.1 µM [cytotoxic, single point]",–
CN(Cc1ccccc1)c1nc(CN2CCOCC2)nc2scc(-c3ccccc3)c12,"inconclusive: 29.1 µM [cytotoxic, single point]",–
N#C/C(=C(/O)CN1CCCC1)c1nc(-c2ccccc2)cs1,–,inactive: 7.71%
COc1ccc2[nH]c3c(c2c1)CCC/C3=N\N,"inconclusive: 16.4 µM [cytotoxic, single point]",–
COc1cc(C(C(=O)NCc2ccccc2)N(Cc2ccco2)C(=O)c2cnccn2)cc(OC)c1OC (stereo not given),–,inactive: 8.24%
CCn1c(=O)c([N+](=O)[O-])c(N2CCSCC2)c2ccccc21,"inconclusive: 23.1 µM [cytotoxic, single point]",–
COc1ccc(NC(=O)CN(Cc2ccco2)Cc2ccco2)cc1S(=O)(=O)N1CCCCC1,"inconclusive: 29.1 µM [cytotoxic, single point]",–
Cc1cc2nc(NC(=O)C3(C)CCN(C)C3)[nH]c2cc1C (stereo not given),–,inactive: 0%
C=CCn1c(SCC(=O)CC(=O)OCC)nc2cc(C(=O)N3CCC(C(N)=O)CC3)ccc2c1=O,–,inconclusive: 2.64%
CCc1ccc2c(c1)/C(=C/C(=O)c1cccs1)C(=O)N2,"inconclusive: 29.1 µM [cytotoxic, single point]",–
O=C(Nc1ccccc1)C1=C[C@@H](c2csc3ccccc23)C[C@@H](OCc2ccc(CO)cc2)O1,"inconclusive: 25.9 µM [cytotoxic, single point]",–
O=[N+]([O-])c1ccc(-c2nc(Nc3cccc(O)c3)c3ccccc3n2)cc1,–,inactive: -6.79%
CS(=O)(=O)c1ccc(Cl)c(NC(=O)CSc2nc3ccccc3c(=O)n2Cc2ccco2)c1,"inconclusive: 29.1 µM [cytotoxic, single point]",–

Compound,Potency,"activity change, negative = cytotoxic"
Nn1cnnc1SCC(=O)N(C1CCCCC1)C1CCCCC1,–,inactive: -8.4%
Cc1ccc2sc(NC(=O)C3CC3)nc2c1C,–,inactive: 0.132%
CCN1CCC2(CC1)Oc1c(OC)cccc1C1CC(c3cccnc3)=NN12 (stereo not given),"inconclusive: 29.1 µM [rising, single point]",–
Cc1ccc(Cl)cc1N1CCN(Cc2nnnn2C2CCCCC2)CC1,"inconclusive: 23.1 µM [cytotoxic, partial curve]",–
O=C(CCCCCn1c(=S)[nH]c2ccc(N3CCOCC3)cc2c1=O)NCc1ccccc1Cl,–,inactive: -13.2%
COc1ccc(Cn2c(CO)cnc2SCc2ccc(F)cc2)cc1,"inconclusive: 18.4 µM [cytotoxic, single point]",–
C=CCOC(=O)C(C#N)c1nc2ccccc2nc1N1CCN(Cc2ccc3c(c2)OCO3)CC1 (stereo not given),–,inactive: -5.83%
CCOC(=O)CN1C(=O)C(Sc2n[nH]c(-c3ccc(O)cc3)n2)CCc2ccccc21 (stereo not given),"inconclusive: 32.6 µM [cytotoxic, single point]",–
COc1ccc2c(c1OC)C(=O)N1c3cccc(Cl)c3C(=O)OC21 (stereo not given),–,inactive: -1.95%
Cc1ccc(C(=O)Oc2ccc(Cl)c3cccnc23)cc1[N+](=O)[O-],"inconclusive: 18.4 µM [rising, partial curve]",–
OC[C@@H]1CN(Cc2ccc(F)cc2)C[C@H](n2cnc3c(N4CCN(c5ccccc5)CC4)ncnc32)O1,"inconclusive: 29.1 µM [cytotoxic, single point]",–
COC(=O)c1cccc(C23CC4(C2)[C@H](CN(Cc2ccc(C(F)(F)F)cc2)[C@@H]4c2ccccc2)C3c2ccccc2)c1 (stereo not given in full),"inconclusive: 29.1 µM [cytotoxic, single point]",–
CC1(C(=O)NCCc2c[nH]c3ccccc23)CCN1Cc1ccccc1OC(F)F (stereo not given),"inconclusive: 18.4 µM [cytotoxic, single point]",–
CCS(=O)(=O)Nc1ccc(C2=NN(C(=O)c3ccco3)C(c3cccs3)C2)cc1 (stereo not given),"inconclusive: 20.6 µM [cytotoxic, single point]",–
CCC12C(=O)C(CC)(C(c3ccccc3)=C1c1ccccc1)[C@@H]1C(=O)N(c3ccccc3)C(=O)C12 (stereo not given in full),"inconclusive: 5.8 µM [cytotoxic, partial curve, poor fit]",–
O=C(Nc1cc2c(cc1C(=O)c1cccc(Br)c1)OCCO2)c1ccccc1F,"inconclusive: 25.9 µM [cytotoxic, single point]",–
CC(=O)Nc1ccc(N2CCN(Cc3ccccc3F)CC2)cc1,–,inactive: 38.8%
O=C(NNC(=O)c1cc(OCC(F)(F)F)ccc1OCC(F)(F)F)c1cccc(C(F)(F)F)c1,"inconclusive: 20.6 µM [cytotoxic, partial curve, poor fit]",–
Cc1cc(C)cc(-n2c(C)cc(C(=O)C(=O)Nc3nnc(C)s3)c2C)c1,–,inactive: -4.35%
CCCn1c(=S)[nH]c2cc(C(=O)N3CCCC(C(=O)OCC)C3)ccc2c1=O (stereo not given),"inconclusive: 16.4 µM [cytotoxic, partial curve]",–
CC(C)CC(=O)NC(c1ccccc1)c1c(O)ccc2ccccc12 (stereo not given),–,inactive: -7.74%
CC(=O)N1CCC2(CC1)CC(=O)c1cc(OCC(=O)NCc3ccc(C)cc3)ccc1O2,–,inactive: 12.3%

# 2 records drawn at random from those above:
Compound,Potency,"activity change, negative = cytotoxic"
Cc1cc(C)cc(-n2c(C)cc(C(=O)C(=O)Nc3nnc(C)s3)c2C)c1,–,inactive: -4.35%
O=C(CCCCCn1c(=S)[nH]c2ccc(N3CCOCC3)cc2c1=O)NCc1ccccc1Cl,–,inactive: -13.2%

# (listing goes on)

Compound,Potency,"activity change, negative = cytotoxic"
CCC(C)c1ccc(OCc2ccc(C(=O)O)o2)cc1 (stereo not given),–,inactive: -0.782%
CNc1ncnc2c1ncn2-c1ccccc1,–,inactive: 3.28%
CC(C)N(C(=O)[C@H]1C[C@H](CC(=O)NCC23CC4CC(CC(C4)C2)C3)C(=O)N2CCc3c([nH]c4ccc(Cl)cc34)[C@]12C)C(C)C,"inconclusive: 18.4 µM [cytotoxic, single point]",–
CC[C@@H](NC(=O)[C@H](Cc1ccccc1)NC(=O)CC[C@H]1O[C@@H](n2ccc(=O)[nH]c2=O)[C@H](O)[C@@H]1O)c1ccccc1,–,inactive: -0.0339%
COc1ccc(-c2cc(-c3c(O)c(OC)c4occc4c3OC)[nH]n2)cc1,"inconclusive: 29.1 µM [cytotoxic, single point]",–
N#CCc1c(C#N)c(N)nc(N2CCN(Cc3ccc4c(c3)OCO4)CC2)c1C#N,"inconclusive: 16.4 µM [cytotoxic, partial curve, poor fit]",–
CCN(CC)S(=O)(=O)c1ccc(NC(=O)c2ccc(N(C)S(C)(=O)=O)cc2)cc1,"inconclusive: 0.291 µM [cytotoxic, full curve, poor fit]",–
O=[N+]([O-])c1cccc(/C=C/c2ccncc2)c1,"inconclusive: 9.2 µM [cytotoxic, partial curve]",–
CC(C)(C)c1ccc(C(=O)Nc2ccccc2NC(=O)c2ccco2)cc1,"inconclusive: 23.1 µM [cytotoxic, single point]",–
CCOC(=O)C1=CCN(S(=O)(=O)c2ccccc2F)C1c1cccc(C)c1 (stereo not given),–,inactive: 0.0564%
Cc1ccc2nc(Nc3nc(CSc4nnc(C)s4)cc(=O)[nH]3)nc(C)c2c1,"inconclusive: 29.1 µM [cytotoxic, single point]",–
O=C1N(Cc2cccc(Cl)c2)C[C@@H]2C[C@@H](c3cccn3-c3cccnc3)N3CCC[C@@]123,"inconclusive: 20.6 µM [cytotoxic, single point]",–
CCOc1ccc(C2=NNC(c3cccnc3)=Nc3ccc(OC)cc32)cc1,"inconclusive: 6.51 µM [cytotoxic, partial curve, poor fit]",–
CS(=O)(=O)c1ccc(C(=O)OCC(=O)Nc2cc(C(F)(F)F)ccc2Cl)cc1[N+](=O)[O-],"inconclusive: 29.1 µM [cytotoxic, single point]",–
CCOc1ccc(/C=N/Nc2cc(N3CCOCC3)ncn2)c(O)c1,"inconclusive: 11.6 µM [cytotoxic, partial curve, poor fit]",–
CC(C)c1c(C(=O)N/N=C/c2ccc3c(c2)OCO3)nnn1-c1nonc1N,–,inactive: 0.0376%
CC1(C(=O)NCc2ccc(F)c(F)c2)Cc2c(-c3cccc(C(N)=O)c3)ccnc2O1 (stereo not given),"inconclusive: 29.1 µM [cytotoxic, single point]",–
O=C(CSc1nnc2ccccn12)N1CCc2ccccc2C1,–,inactive: 1.97%
O=C(NCC(=O)N(c1cccc(F)c1)C(C(=O)NC1CCCC1)c1cccnc1)c1cccs1 (stereo not given),–,inactive: 2.58%
Cc1[nH]c2ccccc2c1C(c1c(C)[nH]c2ccccc12)c1c(C)[nH]c2ccccc12,–,inconclusive: 62.8%
COc1ccc(-c2csc(NC(=O)c3ccccc3NS(=O)(=O)c3ccc(C)cc3)n2)cc1,active: 2.59 µM,–
